From PMC10664664

Amino acid sequences for entries named in this document (tags omitted).
UniProt P06733: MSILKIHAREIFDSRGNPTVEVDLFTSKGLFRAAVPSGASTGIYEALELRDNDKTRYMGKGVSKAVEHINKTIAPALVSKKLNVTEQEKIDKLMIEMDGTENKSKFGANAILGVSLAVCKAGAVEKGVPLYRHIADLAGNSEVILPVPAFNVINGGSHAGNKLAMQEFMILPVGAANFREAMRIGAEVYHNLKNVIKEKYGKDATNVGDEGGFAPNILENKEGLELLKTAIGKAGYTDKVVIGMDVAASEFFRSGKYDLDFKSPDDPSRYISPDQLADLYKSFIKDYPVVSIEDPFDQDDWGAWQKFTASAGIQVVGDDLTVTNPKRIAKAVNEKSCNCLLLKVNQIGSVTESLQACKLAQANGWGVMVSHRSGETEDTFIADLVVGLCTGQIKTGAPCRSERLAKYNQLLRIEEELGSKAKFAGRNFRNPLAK
UniProt P11413: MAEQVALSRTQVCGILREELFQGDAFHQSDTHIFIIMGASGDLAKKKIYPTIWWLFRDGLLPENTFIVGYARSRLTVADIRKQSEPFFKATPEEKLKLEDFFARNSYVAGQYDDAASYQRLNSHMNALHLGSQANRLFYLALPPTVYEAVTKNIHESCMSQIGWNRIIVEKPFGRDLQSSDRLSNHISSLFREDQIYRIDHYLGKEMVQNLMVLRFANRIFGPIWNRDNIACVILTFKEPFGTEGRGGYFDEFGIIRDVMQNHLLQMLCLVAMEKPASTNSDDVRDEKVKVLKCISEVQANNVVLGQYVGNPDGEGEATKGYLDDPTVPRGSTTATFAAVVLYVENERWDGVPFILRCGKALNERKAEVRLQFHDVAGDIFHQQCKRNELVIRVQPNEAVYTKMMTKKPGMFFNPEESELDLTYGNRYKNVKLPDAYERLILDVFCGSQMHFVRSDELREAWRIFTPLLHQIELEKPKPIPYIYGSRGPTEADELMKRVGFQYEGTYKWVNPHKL

T1: LIPH (Lipase H), full-length human cDNA overexpressed (OE-LIPH) (human) (UniProt Q8WWY8)
T1 sequence: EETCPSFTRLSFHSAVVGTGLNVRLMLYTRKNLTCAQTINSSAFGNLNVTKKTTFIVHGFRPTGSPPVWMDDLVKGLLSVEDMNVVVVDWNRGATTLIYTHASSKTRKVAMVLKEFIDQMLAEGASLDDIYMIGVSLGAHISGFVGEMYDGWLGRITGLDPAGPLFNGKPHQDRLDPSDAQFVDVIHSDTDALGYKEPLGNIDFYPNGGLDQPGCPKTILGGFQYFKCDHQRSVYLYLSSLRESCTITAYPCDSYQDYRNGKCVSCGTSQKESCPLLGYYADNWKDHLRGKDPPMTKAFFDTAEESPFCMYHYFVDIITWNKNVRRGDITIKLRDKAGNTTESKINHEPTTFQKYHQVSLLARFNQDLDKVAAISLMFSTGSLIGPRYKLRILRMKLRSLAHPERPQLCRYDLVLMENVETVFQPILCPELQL


Each molecule was assayed against T1, LIPH (Lipase H), full-length human cDNA overexpressed (OE-LIPH) (human) (assay: affinity purification with mass spectrometry; products of co-IP with the FLAG antibody from MIA PaCa-2 cells transfected with NC-vector or OE-LIPH; gel fragments cut from SDS-PAGE, trypsin digest, LC-MS (Q-Exactive)).

binding | Molecule
binds | ENO1 (from UniProt P06733 1-434) (enzyme)
binds | G6PD (from UniProt P11413 1-515) (enzyme)
binds | UBE2O, an E2/E3 hybrid ubiquitin-protein ligase (enzyme, UniProt Q9C0C9 1-1292) MADPAAPTPAAPAPAQAPAPAPEAVPAPAAAPVPAPAPASDSASGPSSDSGPEAGSQRLLFSHDLVSGRYRGSVHFGLVRLIHGEDSDSEGEEEGRGSSGCSEAGGAGHEEGRASPLRRGYVRVQWYPEGVKQHVKETKLKLEDRSVVPRDVVRHMRSTDSQCGTVIDVNIDCAVKLIGTNCIIYPVNSKDLQHIWPFMYGDYIAYDCWLGKVYDLKNQIILKLSNGARCSMNTEDGAKLYDVCPHVSDSGLFFDDSYGFYPGQVLIGPAKIFSSVQWLSGVKPVLSTKSKFRVVVEEVQVVELKVTWITKSFCPGGTDSVSPPPSVITQENLGRVKRLGCFDHAQRQLGERCLYVFPAKVEPAKIAWECPEKNCAQGEGSMAKKVKRLLKKQVVRIMSCSPDTQCSRDHSMEDPDKKGESKTKSEAESASPEETPDGSASPVEMQDEGAEEPHEAGEQLPPFLLKEGRDDRLHSAEQDADDEAADDTDDTSSVTSSASSTTSSQSGSGTSRKKSIPLSIKNLKRKHKRKKNKITRDFKPGDRVAVEVVTTMTSADVMWQDGSVECNIRSNDLFPVHHLDNNEFCPGDFVVDKRVQSCPDPAVYGVVQSGDHIGRTCMVKWFKLRPSGDDVELIGEEEDVSVYDIADHPDFRFRTTDIVIRIGNTEDGAPHKEDEPSVGQVARVDVSSKVEVVWADNSKTIILPQHLYNIESEIEESDYDSVEGSTSGASSDEWEDDSDSWETDNGLVEDEHPKIEEPPIPPLEQPVAPEDKGVVISEEAATAAVQGAVAMAAPMAGLMEKAGKDGPPKSFRELKEAIKILESLKNMTVEQLLTGSPTSPTVEPEKPTREKKFLDDIKKLQENLKKTLDNVAIVEEEKMEAVPDVERKEDKPEGQSPVKAEWPSETPVLCQQCGGKPGVTFTSAKGEVFSVLEFAPSNHSFKKIEFQPPEAKKFFSTVRKEMALLATSLPEGIMVKTFEDRMDLFSALIKGPTRTPYEDGLYLFDIQLPNIYPAVPPHFCYLSQCSGRLNPNLYDNGKVCVSLLGTWIGKGTERWTSKSSLLQVLISIQGLILVNEPYYNEAGFDSDRGLQEGYENSRCYNEMALIRVVQSMTQLVRRPPEVFEQEIRQHFSTGGWRLVNRIESWLETHALLEKAQALPNGVPKASSSPEPPAVAELSDSGQQEPEDGGPAPGEASQGSDSEGGAQGLASASRDHTDQTSETAPDASVPPSVKPKKRRKSYRSFLPEKSGYPDIGFPLFPLSKGFIKSIRGVLTQFRAALLEAGMPECTEDK
binds | aldolase A (ALDOA) (enzyme, UniProt P04075 1-364) MPYQYPALTPEQKKELSDIAHRIVAPGKGILAADESTGSIAKRLQSIGTENTEENRRFYRQLLLTADDRVNPCIGGVILFHETLYQKADDGRPFPQVIKSKGGVVGIKVDKGVVPLAGTNGETTTQGLDGLSERCAQYKKDGADFAKWRCVLKIGEHTPSALAIMENANVLARYASICQQNGIVPIVEPEILPDGDHDLKRCQYVTEKVLAAVYKALSDHHIYLEGTLLKPNMVTPGHACTQKFSHEEIAMATVTALRRTVPPAVTGITFLSGGQSEEEASINLNAINKCPLLKPWALTFSYGRALQASALKAWGGKKENLKAAQEEYVKRALANSLACQGKYTPSGQAGAAASESLFVSNHAY

No constants are given. Whether binding was seen depends on the method and setting. In cells and extracts the contact can be indirect. Here binding means that the protein was enriched with, or labelled near, the bait; the list need not be complete.
